Results taken from US7700284B2, “Reporter transcription unit populations and kits comprising same” (Attagene, Inc., priority 2004, dated 2010).
At least one structure is not confirmed: it was looked up by name or label, or the drawing left a doubt.

Test system: CRE RTU
Assay: Multiplexed RTU reporter profiling in transfected HEK293 cells, CRE RTU
Type: cell-based, human
Settings: HEK293, 1 μg per ml, 6 hrs stimulation, 11-RTU library

SMILES: C=C[C@@]1(C)CC(=O)[C@]2(O)[C@@]3(C)[C@@H](O)CCC(C)(C)[C@@H]3[C@H](O)[C@H](OC(C)=O)[C@@]2(C)O1 [forskolin, Forskolin]
- activation of CRE RTU (stimulated versus nonstimulated cells): specifically activated
